Consider one molecule from paper PMC9663597, “Anti-infective therapy using species-specific activators of Staphylococcus aureus ClpP” (Nature Communications, 2022).

Results are given in words; binding and its absence hold for the method and conditions named. Some binding calls cover weakened binding; strength is not graded here.

In this assay the target is T1, Staphylococcus aureus ClpP (Staphylococcus aureus), Q2G036.
T1 chain: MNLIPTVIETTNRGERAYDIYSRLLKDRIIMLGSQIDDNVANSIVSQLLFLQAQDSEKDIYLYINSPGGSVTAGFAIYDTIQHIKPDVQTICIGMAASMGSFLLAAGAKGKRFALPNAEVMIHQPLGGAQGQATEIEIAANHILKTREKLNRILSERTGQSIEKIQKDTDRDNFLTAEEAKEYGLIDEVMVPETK
As to the kind of experiment: crystal structure; SaClpP (10 mg/mL) with 5-fold (R)- or (S)-ZG197, sitting drop vapor diffusion at 16 °C, 30% 2-methyl-2,4-pentanediol, 0.1 M sodium acetate trihydrate pH 4.6, 200 mM sodium chloride; 2.15 Å and 2.11 Å; both purified. As to conditions: remark: other sources report otherwise.

B1: Staphylococcus aureus ClpP, Q2G036 1-195 (enzyme)
chain: T1 chain
On to B1, for which the binding entry was “binds”.
